The target in assay [1] is Voltage-dependent anion-selective channel protein 1 (VDAC1), endogenous in rat VSMCs (rat (endogenous in primary VSMCs)) (UniProt Q9Z2L0). The assay can be described thus: co-IP; endogenous proteins in rat VSMC lysates (50 mM Tris-HCl pH 8.0, 150 mM NaCl, 0.1% SDS, 0.5% deoxycholate, 0.5% NP-40), specific antibodies and protein A/G-agarose, 4 °C; cells with or without PDGF-BB for 12 h, 6-AN, siG6PD or Ad-G6PD.

Amino acid sequences for entries named in this document (tags omitted). A change or cut given only in a name is not applied to a line headed by its entry. Residues count along the entry.
UniProt Q9Z2L0: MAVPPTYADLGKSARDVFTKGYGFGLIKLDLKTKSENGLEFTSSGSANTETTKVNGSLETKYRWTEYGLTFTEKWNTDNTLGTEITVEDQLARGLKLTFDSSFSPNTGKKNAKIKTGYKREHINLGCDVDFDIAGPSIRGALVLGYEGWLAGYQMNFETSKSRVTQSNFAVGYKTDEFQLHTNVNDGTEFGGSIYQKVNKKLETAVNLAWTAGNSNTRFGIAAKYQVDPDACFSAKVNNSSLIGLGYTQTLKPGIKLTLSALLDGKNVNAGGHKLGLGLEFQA
UniProt P05370: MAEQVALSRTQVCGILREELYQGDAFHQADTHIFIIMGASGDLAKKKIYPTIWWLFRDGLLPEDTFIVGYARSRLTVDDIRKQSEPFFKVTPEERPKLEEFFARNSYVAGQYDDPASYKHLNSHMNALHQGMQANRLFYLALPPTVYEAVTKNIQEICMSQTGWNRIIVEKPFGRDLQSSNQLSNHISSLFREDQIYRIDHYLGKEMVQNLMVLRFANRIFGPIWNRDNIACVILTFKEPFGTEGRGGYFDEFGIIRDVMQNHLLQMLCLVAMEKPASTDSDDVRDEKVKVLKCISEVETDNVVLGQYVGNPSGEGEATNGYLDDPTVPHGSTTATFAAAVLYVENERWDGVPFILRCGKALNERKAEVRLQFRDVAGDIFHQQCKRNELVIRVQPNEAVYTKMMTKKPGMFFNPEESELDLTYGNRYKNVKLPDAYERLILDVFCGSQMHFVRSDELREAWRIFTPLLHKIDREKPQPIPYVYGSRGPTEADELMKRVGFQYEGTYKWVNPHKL
HA-G6PD-NTD (aa 1-210) expressed in VSMCs: residues 1-210 of P05370
UniProt P49950: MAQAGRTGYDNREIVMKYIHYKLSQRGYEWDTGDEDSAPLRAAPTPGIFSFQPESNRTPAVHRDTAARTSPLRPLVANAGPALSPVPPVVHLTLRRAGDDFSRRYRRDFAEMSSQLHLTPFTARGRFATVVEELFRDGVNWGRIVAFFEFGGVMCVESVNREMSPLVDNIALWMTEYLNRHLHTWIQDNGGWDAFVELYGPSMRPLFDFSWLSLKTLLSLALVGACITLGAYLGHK
UniProt Q63690: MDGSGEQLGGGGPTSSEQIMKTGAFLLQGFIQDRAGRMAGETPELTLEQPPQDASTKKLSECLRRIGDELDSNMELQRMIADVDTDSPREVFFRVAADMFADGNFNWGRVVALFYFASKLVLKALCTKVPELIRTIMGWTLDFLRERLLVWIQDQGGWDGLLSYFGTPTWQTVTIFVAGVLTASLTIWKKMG

Another assay deals with GST-G6PD (rat) (UniProt P05370). The assay is described as follows: pull-down; recombinant GST-G6PD on glutathione-Sepharose 4B beads incubated with total lysate of HEK293A cells transfected with Flag-VDAC1, 4 °C overnight; blot with anti-G6PD and anti-VDAC1; only the target purified.
In assay [2] the target is HA-G6PD-NTD (N-terminal domain, aa 1-210) (rat) (UniProt P05370). The assay is described as follows: co-IP; HEK293A cells cotransfected with Flag-VDAC1 and HA-G6PD (FL, NTD or CTD); IP with anti-HA or anti-Flag, blot with anti-Flag or anti-HA.
In assay [3] the target is HA-G6PD full length (pcDNA3.1-HA-G6PD) (rat) (UniProt P05370). Described as above.
In assay [4] the target is Glucose-6-phosphate dehydrogenase (G6PD), endogenous in rat VSMCs (rat (endogenous in primary VSMCs)) (UniProt P05370). The assay can be described thus: cross-linking; DSS 5 mM on suspended cells in 20 mM HEPES pH 8.0, 37 °C, 30 min, then Western blot; VSMCs with or without PDGF-BB for 12 h, siG6PD, 6AN, G6PD overexpression. A general note: A western blot detects proteins with antibodies after separation by electrophoresis.

Assay [5] has as its target HA-G6PD-NTD (aa 1-210) expressed in VSMCs (rat) (UniProt P05370). The assay can be described thus: co-IP; VSMCs transfected with HA-G6PD-FL, -NTD or -CTD; IP with anti-HA, blot with anti-VDAC1 (endogenous).
The target in assay [6] is Glucose-6-phosphate dehydrogenase (G6PD), endogenous in rat VSMCs (rat (endogenous in primary VSMCs)) (UniProt P05370). The assay can be described thus: co-IP; endogenous proteins in rat VSMC lysates (50 mM Tris-HCl pH 8.0, 150 mM NaCl, 0.1% SDS, 0.5% deoxycholate, 0.5% NP-40), specific antibodies and protein A/G-agarose, 4 °C; cells with or without PDGF-BB for 12 h, 6-AN, siG6PD or Ad-G6PD.

Assay [7] has the same target. Described as above. This is another data set of the same source.

Results are given in words; binding and its absence hold for the method and conditions named. In cells and extracts the contact can be indirect. Some entries that bind do so weakly or less than the wild type.

Regarding “B-Cell Leukemia/Lymphoma 2 (Bcl-2), endogenous in rat VSMCs (from UniProt P49950 1-236)”, the binding result in assay [1] is given as “binds”.

Take “Bcl-2-associated X protein (Bax), endogenous in rat VSMCs (from UniProt Q63690 1-192)”: in assay [1], the binding result is listed as “binds”.

On to “Flag-VDAC1 (pcDNA3.1-Flag-VDAC1) (from UniProt Q9Z2L0 1-283)”, for which the binding result (with GST-G6PD (rat); in assay [2]; in assay [3]) was “binds” in each case.

As for “Glucose-6-phosphate dehydrogenase (G6PD), endogenous in rat VSMCs (from UniProt P05370 1-515) (enzyme)”, the binding result in assay [4] and in assay [1] was “binds” in each case.

Turning to “Voltage-dependent anion-selective channel protein 1 (VDAC1), endogenous in rat VSMCs (from UniProt Q9Z2L0 1-283)”, the binding result in assay [5] and in assay [6] was “binds” each time.

B1: VDAC2, endogenous in rat VSMCs (protein, UniProt P81155 1-295)
chain: MAECCVPVCQRPICIPPPYADLGKAARDIFNKGFGFGLVKLDVKTKSCSGVEFSTSGSSNTDTGKVSGTLETKYKWCEYGLTFTEKWNTDNTLGTEIAIEDQICQGLKLTFDTTFSPNTGKKSGKIKSAYKRECINLGCDVDFDFAGPAIHGSAVFGYEGWLAGYQMTFDSAKSKLTRSNFAVGYRTGDFQLHTNVNNGTEFGGSIYQKVCEDFDTSVNLAWTSGTNCTRFGIAAKYQLDPTASISAKVNNSSLIGVGYTQTLRPGVKLTLSALVDGKSFNAGGHKLGLALELEA
B1: in assay [7], the binding entry is on record as “binds”.

B2: VDAC3, endogenous in rat VSMCs (protein, UniProt Q9R1Z0 1-283)
chain: MCSTPTYCDLGKAAKDVFNKGYGFGMVKIDLKTKSCSGVEFSTSGHAYTDTGKASGNLETKYKVCNYGLIFTQKWNTDNTLGTEISWENKLAEGLKLTVDTIFVPNTGKKSGKLKASYRRDCFSVGSKVDIDFSGPTIYGWAVLAFEGWLAGYQMSFDTAKSKLCQNNFALGYKAEDFQLHTHVNDGTEFGGSIYQRVNEKIETSINLAWTAGSNNTRFGIAAKYRLDCRTSLSAKVNNASLIGLGYTQSLRPGVKLTLSALVDGKNFNAGGHKVGLGFELEA
As for B2, in assay [7], the binding result is “binds”.

For the origin of these results see article PMC11003121.
